Results: patent US20090208927

Amino acid sequences for entries named in this document (tags omitted).
UniProt Q04206, whole entry: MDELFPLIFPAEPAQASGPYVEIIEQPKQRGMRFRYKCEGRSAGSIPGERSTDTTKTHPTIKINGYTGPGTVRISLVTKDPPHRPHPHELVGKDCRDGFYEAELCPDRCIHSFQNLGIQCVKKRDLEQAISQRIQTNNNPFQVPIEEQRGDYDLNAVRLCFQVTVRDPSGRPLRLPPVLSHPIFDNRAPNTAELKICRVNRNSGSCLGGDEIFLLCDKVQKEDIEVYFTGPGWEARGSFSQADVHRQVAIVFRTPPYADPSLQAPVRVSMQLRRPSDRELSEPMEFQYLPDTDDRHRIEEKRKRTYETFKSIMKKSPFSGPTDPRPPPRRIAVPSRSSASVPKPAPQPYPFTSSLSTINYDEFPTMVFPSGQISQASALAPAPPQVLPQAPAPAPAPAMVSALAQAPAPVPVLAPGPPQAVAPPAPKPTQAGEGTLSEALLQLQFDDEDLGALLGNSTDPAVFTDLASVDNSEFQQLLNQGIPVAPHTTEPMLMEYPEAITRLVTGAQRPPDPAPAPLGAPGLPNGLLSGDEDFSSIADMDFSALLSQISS

Legend:
NF-kB p50 (Homo sapiens) = biological target: T1, NF-kB p50 (Homo sapiens) (UniProt P19838); assay: binding assay; conditions: internal amino-C6 linker in loop [internal amino-C6 linker (n at printed position 21) left out, between positions 20 and 21]; protection from EcoRI digestion, Luminex; 2 mM MgCl2 for binding, 10 mM for digestion; protein in an extract; protein details: endogenous, TNF-treated HeLa nuclear extract; label: 5' biotin; letters built from the parent sequence and the stated change
T1 sequence (looked up, limits assumed): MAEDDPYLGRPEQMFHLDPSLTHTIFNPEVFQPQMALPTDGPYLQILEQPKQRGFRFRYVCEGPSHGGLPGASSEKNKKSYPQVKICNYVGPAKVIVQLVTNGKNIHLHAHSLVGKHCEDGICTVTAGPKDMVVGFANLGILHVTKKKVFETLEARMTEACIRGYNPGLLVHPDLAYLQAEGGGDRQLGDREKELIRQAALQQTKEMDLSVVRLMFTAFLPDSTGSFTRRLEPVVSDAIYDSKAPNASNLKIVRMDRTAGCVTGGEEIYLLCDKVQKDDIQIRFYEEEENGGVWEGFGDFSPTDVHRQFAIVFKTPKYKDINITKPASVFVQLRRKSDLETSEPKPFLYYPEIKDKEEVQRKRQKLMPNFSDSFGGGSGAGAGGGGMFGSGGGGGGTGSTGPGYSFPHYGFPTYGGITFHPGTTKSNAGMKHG

NF-kB p65 (Homo sapiens) = NF-kB p65 (Homo sapiens) (UniProt Q04206); assay: pull-down; conditions: anti-p65 protein G bead capture, SA-PE detection; 2 mM MgCl2, poly dI-dC, RT; protein in an extract; label: 5' biotin

Sequence | binding result (NF-kB p50 (Homo sapiens)) | binding result (NF-kB p65 (Homo sapiens))
TCCAAGGGGATTCCCCAGTGACTGGGGAATCCCCTTGGA [KBREHP hairpin] | binds | –
TATCCAAGGGGACTTTCCCCTGGCAGGGGAAAGTCCCCTTGGATA [biotin-HPNFKB65 hairpin] | – | binds

For at least one entry, the source does not settle the construct or the ends of the probe. Where cells or extracts were used, other partners may take part. For some assays here: Where a protein sequence is shown, tags need not be part of it.
